Results as given in paper PMC3237451, “Missense Mutation in the Second RNA Binding Domain Reveals a Role for Prkra (PACT/RAX) during Skull Development”.
These are yes or no findings as the source states them, for the method shown. Binding seen in cells or lysates may run through a third protein. Some binding calls cover weakened binding; strength is not graded here. Where a sequence is shown, tags or fusion partners need not be part of it. Blank lines part the entries; values can stand above or below the binder they belong to.

How the values were obtained:
FLAG-RAX (S130P) (mouse) = molecular target: T1, FLAG-RAX (S130P) (mouse) (UniProt Q9WTX2); experiment: co-IP; FLAG-RAX immunoprecipitated with anti-FLAG M2 affinity gel from lysates (Triton X-100 lysis buffer) of unstressed or sodium arsenite treated L929 cells; micrococcal nuclease treatment (37°C, 30 min); western blot for endogenous PKR
T1 sequence: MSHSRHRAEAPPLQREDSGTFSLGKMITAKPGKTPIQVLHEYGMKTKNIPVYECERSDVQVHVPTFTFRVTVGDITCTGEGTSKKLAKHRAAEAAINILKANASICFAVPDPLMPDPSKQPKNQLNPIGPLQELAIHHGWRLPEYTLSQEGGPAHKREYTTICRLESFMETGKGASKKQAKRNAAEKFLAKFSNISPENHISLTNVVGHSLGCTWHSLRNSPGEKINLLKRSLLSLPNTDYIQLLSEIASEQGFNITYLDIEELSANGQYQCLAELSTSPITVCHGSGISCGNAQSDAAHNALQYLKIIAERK

FLAG-RAX (WT) (mouse) = molecular target: T2, FLAG-RAX (WT) (mouse) (UniProt Q9WTX2); experiment: as above
T2 sequence: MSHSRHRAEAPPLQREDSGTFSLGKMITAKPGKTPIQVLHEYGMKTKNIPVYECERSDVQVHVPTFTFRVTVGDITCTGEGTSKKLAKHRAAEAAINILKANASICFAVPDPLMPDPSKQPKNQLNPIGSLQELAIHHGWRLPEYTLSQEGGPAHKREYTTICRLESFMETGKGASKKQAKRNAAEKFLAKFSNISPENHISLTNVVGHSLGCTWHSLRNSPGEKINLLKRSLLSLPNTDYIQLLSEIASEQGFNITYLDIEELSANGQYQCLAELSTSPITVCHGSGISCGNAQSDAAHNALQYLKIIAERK

[1] = molecular target: T3, His-RAX (WT, recombinant 6xHis-tagged RAX) (mouse) (UniProt Q9WTX2); experiment: pull-down; 2 µg purified 6xHis-tagged WT or mutant RAX incubated with lysate of L929 cells expressing FLAG-RAX or FLAG-RAX (S130P) in 20 mM Tris-HCl, 150 mM NaCl, 10 mM imidazole, 10% glycerol; pulled down with Ni-NTA agarose; micrococcal nuclease treatment (37°C, 30 min) to remove dsRNA-facilitated interactions; western blot; only the target purified
T3 sequence: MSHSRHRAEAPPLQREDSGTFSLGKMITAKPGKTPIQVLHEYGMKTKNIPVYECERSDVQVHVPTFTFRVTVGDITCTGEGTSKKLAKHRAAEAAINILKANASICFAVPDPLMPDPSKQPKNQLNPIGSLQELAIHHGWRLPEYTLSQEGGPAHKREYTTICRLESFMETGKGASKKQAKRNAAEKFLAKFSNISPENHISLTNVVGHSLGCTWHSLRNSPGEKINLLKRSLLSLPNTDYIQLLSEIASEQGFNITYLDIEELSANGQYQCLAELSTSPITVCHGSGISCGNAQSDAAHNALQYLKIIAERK

His-RAX (S130P) = molecular target: T4, His-RAX (S130P) (Mus musculus (cDNA from L929 cells), UniProt Q9WTX2 1-313, S130P); experiment: as above
T4 sequence: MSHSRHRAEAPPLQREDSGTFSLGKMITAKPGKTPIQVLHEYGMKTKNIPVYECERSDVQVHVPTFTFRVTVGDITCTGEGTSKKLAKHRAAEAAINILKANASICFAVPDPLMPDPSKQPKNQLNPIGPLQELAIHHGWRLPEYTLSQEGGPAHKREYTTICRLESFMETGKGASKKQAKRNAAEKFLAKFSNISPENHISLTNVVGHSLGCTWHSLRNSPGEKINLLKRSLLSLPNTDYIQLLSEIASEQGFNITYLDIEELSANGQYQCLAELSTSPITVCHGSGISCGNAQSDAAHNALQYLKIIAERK

binding (FLAG-RAX (S130P) (mouse)): binds | binding (FLAG-RAX (WT) (mouse)): binds
B1: PKR (interferon inducible, double-stranded RNA dependent protein kinase) (enzyme, UniProt Q03963 1-515)
chain: MASDTPGFYMDKLNKYRQMHGVAITYKELSTSGPPHDRRFTFQVLIDEKEFPEAKGRSKQEARNAAAKLAVDILDNENKVDCHTSASEQGLFVGNYIGLVNSFAQKKKLSVNYEQCEPNSELPQRFICKCKIGQTMYGTGSGVTKQEAKQLAAKEAYQKLLKSPPKTAGTSSSVVTSTFSGFSSSSSMTSNGVSQSAPGSFSSENVFTNGLGENKRKSGVKVSPDDVQRNKYTLDARFNSDFEDIEEIGLGGFGQVFKAKHRIDGKRYAIKRVKYNTEKAEHEVQALAELNHVNIVQYHSCWEGVDYDPEHSMSDTSRYKTRCLFIQMEFCDKGTLEQWMRNRNQSKVDKALILDLYEQIVTGVEYIHSKGLIHRDLKPGNIFLVDERHIKIGDFGLATALENDGKSRTRRTGTLQYMSPEQLFLKHYGKEVDIFALGLILAELLHTCFTESEKIKFFESLRKGDFSNDIFDNKEKSLLKKLLSEKPKDRPETSEILKTLAEWRNISEKKKRNTC

binding [1]: binds
B2: FLAG-RAX (WT) (protein, UniProt Q9WTX2 1-313)
chain: MSHSRHRAEAPPLQREDSGTFSLGKMITAKPGKTPIQVLHEYGMKTKNIPVYECERSDVQVHVPTFTFRVTVGDITCTGEGTSKKLAKHRAAEAAINILKANASICFAVPDPLMPDPSKQPKNQLNPIGSLQELAIHHGWRLPEYTLSQEGGPAHKREYTTICRLESFMETGKGASKKQAKRNAAEKFLAKFSNISPENHISLTNVVGHSLGCTWHSLRNSPGEKINLLKRSLLSLPNTDYIQLLSEIASEQGFNITYLDIEELSANGQYQCLAELSTSPITVCHGSGISCGNAQSDAAHNALQYLKIIAERK

binding (His-RAX (S130P)): binds
B3: FLAG-RAX (S130P) (protein, UniProt Q9WTX2 1-313)
chain: MSHSRHRAEAPPLQREDSGTFSLGKMITAKPGKTPIQVLHEYGMKTKNIPVYECERSDVQVHVPTFTFRVTVGDITCTGEGTSKKLAKHRAAEAAINILKANASICFAVPDPLMPDPSKQPKNQLNPIGPLQELAIHHGWRLPEYTLSQEGGPAHKREYTTICRLESFMETGKGASKKQAKRNAAEKFLAKFSNISPENHISLTNVVGHSLGCTWHSLRNSPGEKINLLKRSLLSLPNTDYIQLLSEIASEQGFNITYLDIEELSANGQYQCLAELSTSPITVCHGSGISCGNAQSDAAHNALQYLKIIAERK
